Among all 330,000 compounds or so, about 7,700 (2.3%) were called active. The inconclusive results got no clear call from the source; some entries with a clear call stand among them for comparison. The call rests on the fitted dose curve; in most records, active means well fitted inhibition curve with a large enough effect; inconclusive means small, poorly fitted or top-dose-only effect, or effect the other way; inactive means flat fitted curve, though single readings scatter. A potency beside an inconclusive call is a rough fit, not a confirmed value.
experiment: qHTS screen for small molecules that inhibit ELG1-dependent DNA repair in human embryonic kidney (HEK293T) cells expressing luciferase-tagged ELG1; conditions: HEK293T ELG1-luciferase reporter, luminescence, 16 h, DNA damage induced by 5-fluorouridine; series mostly up to 46.1 µM; further: nearly all actives have a fitted effect of over 55% in size
Method in brief: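 Step one: seed 2,000 cells per well. Step two: pin-transfer compound or DMSO alongside 5-fluorouridine. Step three: incubate 16 hr, 37 °C, 5% CO2. Step four: add ONE-Glo, wait 30 min, read luminescence.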
Potency means the concentration at half of the fitted maximal effect.

| SMILES | Potency |
| --- | --- |
| O=C(NCC1COc2ccccc2O1)c1ccccc1 (stereo not drawn) | inconclusive: 10 µM [activator, partial curve] |
| O=C(CSc1nnc2ccc3ccccc3n12)N1CCOCC1 | inconclusive: 16.4 µM [activator, partial curve] |
| Cc1ccc(N/C=C(\C2OC(=O)c3ccccc32)[N+](=O)[O-])c(C)c1 (stereo not drawn) | inconclusive: 0.651 µM [inhibitor, partial curve, poor fit] |
| COc1cccc(C(=O)NNC(=S)NC2CCCCC2)c1 | inconclusive: 2.06 µM [activator, full curve] |
| O=C(O)CCC(=O)NNc1ccccc1[N+](=O)[O-] | inactive |
| COC(=O)[C@@]12CCCN1[C@H](c1ccc(-c3ccccc3)c(OC)c1)[C@H]1C(=O)N(C)C(=O)[C@H]12 | inactive |
| Cc1onc(C(=O)NN)c1-c1csc(COc2ccccc2)n1 | inconclusive: 29.1 µM [inhibitor, single point] |
| O=C(COc1cccnc1[N+](=O)[O-])Nc1ccc2c(c1)CCC2 | inconclusive: 9.2 µM [activator, partial curve, poor fit] |
| Cc1ccc(-c2nc3ccccc3o2)cc1NC(=O)c1ccc2c(c1)OCO2 | inconclusive: 9.2 µM [activator, partial curve] |
| CC1CCCC(NC(=O)COC(=O)c2ccccc2[N+](=O)[O-])C1C (stereo not drawn) | inconclusive: 0.116 µM [inhibitor, single point] |
| CCN(Cc1cnn(C)c1)C(=O)c1cc(COc2ccc3c(c2)CCCC3)on1 | inactive |
| NC(=O)CSCc1nc2ccccc2s1 | inconclusive: 23.1 µM [activator, partial curve] |
| C=CCC[C@@H](Cc1ccc(F)cc1)C(=O)OC[C@@H](NC(=O)[C@@H](CC=C)CC(=O)N(CCO)Cc1ccccc1)c1ccccc1 | active: 20.6 µM |
| CCCC(=O)N1CCN(c2ccc(C(=O)c3ccc(OC)c(Br)c3)cc2F)CC1 | inconclusive: 18.4 µM [inhibitor, partial curve, poor fit] |
| FC(F)(F)c1cccc(-c2nc(-c3ccncc3)no2)c1 | inconclusive: 29.1 µM [activator, single point] |
| Clc1ccccc1/C=N/NC1=Nc2cccc3cccc1c23 | inconclusive: 2.91 µM [activator, partial curve, poor fit] |
| CCOC(=O)c1sc(NC(=O)c2cc(-c3ccc(C)cc3)nc3ccccc23)c(C#N)c1C | inconclusive: 8.2 µM [inhibitor, partial curve] |
| CC1CC(C)CN(C(=O)COC(=O)c2ccc3c(c2)OCCO3)C1 (stereo not drawn) | inactive |
